# The list shows only some results of the screen, not a fair sample: it is rich in T/C values a quarter to a half above the control, in often repeated tests (any T/C) and in doses without a T/C. Other doses and runs of a compound stand elsewhere. T/C: endpoint of the treated group in % of that of the vehicle group. Some T/C values carry the count of animals alive at the toxicity check (mostly the fifth day); without a count, all were alive then. Schedule codes are those of the source, read here as Q, the interval in days (D) or hours (H), X, the number of doses. Some entries give survivors of the animals treated and no T/C: the source holds a T/C of zero for them, seemingly a mark for toxic or unscored doses. Some survivor counts are full or nearly so, which does not show that the dose was tolerated: survival well below the control is almost never listed, so the zero probably covers shortened survival too. Counts of survivors are from the toxicity check (mostly the fifth day) where no day follows; animals may have died later. Signs of the kind (2×) give the number of equal values in this list. Some entries hold several experiments; the results are listed from low to high. For survival time, this PubChem deposit counts one and a half times the control or more as active, and values a quarter to a half above the control carry no call in these data; other NCI protocols may use other cut-offs.
# Test system: Lewis lung carcinoma i.m., BDF1 mice, T/C %
# Test: NCI In Vivo Anticancer Drug Screen. Data for tumor model Lewis Lung Carcinoma (intramuscular) in B6D2F1 (BDF1) mice
# Method in brief: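 Value is the ratio of a treated-group measurement (T) to the matching vehicle-control measurement (C), using either survival or tumour size in mice bearing transplanted tumours.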
# [1] = T/C endpoint: median survival time, dose: 4.0 mg/kg/injection, schedule: Q01DX011 (ip), vehicle: saline, higher T/C = longer survival
# [2] = T/C endpoint: median survival time, dose: 100.0 mg/kg/injection, schedule: Q01DX011 (ip), vehicle: saline with Tween-80, higher T/C = longer survival
# [3] = T/C endpoint: median survival time, dose: 200.0 mg/kg/injection, schedule: Q01DX011 (ip), vehicle: Klucel (hydroxypropylcellulose) (HPC), higher T/C = longer survival
# [4] = T/C endpoint: median survival time, dose: 25.0 mg/kg/injection, schedule: Q01DX011 (ip), vehicle: saline with Tween-80, higher T/C = longer survival
# [5] = T/C endpoint: median survival time, dose: 50.0 mg/kg/injection, schedule: Q01DX011 (ip), vehicle: saline with Tween-80, higher T/C = longer survival
# [6] = T/C endpoint: mean tumor weight, dose: 100.0 mg/kg/injection, schedule: Q01DX011 (ip), vehicle: other, higher T/C = larger tumour
# [7] = T/C endpoint: median survival time, dose: 6.25 mg/kg/injection, schedule: Q01DX011 (ip), vehicle: other, higher T/C = longer survival
# [8] = T/C endpoint: median survival time, dose: 100.0 mg/kg/injection, schedule: Q01DX011 (ip), vehicle: other, higher T/C = longer survival
# [9] = T/C endpoint: median survival time, dose: 200.0 mg/kg/injection, schedule: Q01DX011 (ip), vehicle: other, higher T/C = longer survival
structure (smiles),measurement,setting,value
N=[N+]=CC(=O)OCC(N)C(=O)O (configuration not stated),T/C,[1],147 % of control
same,survivor count,[1],5 of 8
same,survivor count,"T/C endpoint: median survival time, dose: 8.0 mg/kg/injection, schedule: Q01DX011 (ip), vehicle: saline, higher T/C = longer survival",6 of 8 (2×)
same,survivor count,"T/C endpoint: median survival time, dose: 16.0 mg/kg/injection, schedule: Q01DX011 (ip), vehicle: saline, higher T/C = longer survival",2 of 8 and 3 of 8
same,survivor count,"T/C endpoint: median survival time, dose: 32.0 mg/kg/injection, schedule: Q01DX011 (ip), vehicle: saline, higher T/C = longer survival",0 of 8 (2×)
same,survivor count,"T/C endpoint: median tumor weight (est.), dose: 4.0 mg/kg/injection, schedule: Q01DX011 (ip), vehicle: saline, higher T/C = larger tumour",5 of 8
same,survivor count,"T/C endpoint: median tumor weight (est.), dose: 16.0 mg/kg/injection, schedule: Q01DX011 (ip), vehicle: saline, higher T/C = larger tumour",3 of 8
N=C(N)SCc1c2ccccc2c(CSC(=N)N)c2ccccc12,survivor count,"T/C endpoint: mean tumor weight, dose: 100.0 mg/kg/injection, schedule: Q01DX011 (ip), vehicle: saline, higher T/C = larger tumour",4 of 8
same,survivor count,"T/C endpoint: median survival time, dose: 50.0 mg/kg/injection, schedule: Q01DX011 (ip), vehicle: saline, higher T/C = longer survival",8 of 8
same,survivor count,"T/C endpoint: median survival time, dose: 100.0 mg/kg/injection, schedule: Q01DX011 (ip), vehicle: saline, higher T/C = longer survival",4 of 8
same,survivor count,"T/C endpoint: median survival time, dose: 200.0 mg/kg/injection, schedule: Q01DX011 (ip), vehicle: saline, higher T/C = longer survival",0 of 8
Nc1nc(Cl)nc2c1ncn2C1OC(CO)C(O)C1O (configuration not stated),survivor count,[2],6 of 8
CC(=O)OCC1OC(n2ncc(=O)[nH]c2=O)C(OC(C)=O)C1OC(C)=O (configuration not stated),survivor count,"T/C endpoint: mean tumor weight (est.), dose: 100.0 mg/kg/injection, schedule: Q01DX011 (ip), vehicle: water, higher T/C = larger tumour",4 of 8
same,survivor count,"T/C endpoint: mean tumor weight, dose: 1600.0 mg/kg/injection, schedule: Q01DX011 (ip), vehicle: Klucel (hydroxypropylcellulose) (HPC), higher T/C = larger tumour",4 of 8
same,survivor count,"T/C endpoint: median survival time, dose: 12.5 mg/kg/injection, schedule: Q01DX011 (ip), vehicle: Klucel (hydroxypropylcellulose) (HPC), higher T/C = longer survival",6 of 8
same,survivor count,"T/C endpoint: median survival time, dose: 25.0 mg/kg/injection, schedule: Q01DX011 (ip), vehicle: Klucel (hydroxypropylcellulose) (HPC), higher T/C = longer survival",7 of 8
same,survivor count,"T/C endpoint: median survival time, dose: 50.0 mg/kg/injection, schedule: Q01DX011 (ip), vehicle: Klucel (hydroxypropylcellulose) (HPC), higher T/C = longer survival",6 of 8
same,survivor count,"T/C endpoint: median survival time, dose: 100.0 mg/kg/injection, schedule: Q01DX011 (ip), vehicle: Klucel (hydroxypropylcellulose) (HPC), higher T/C = longer survival",2 of 8
same,survivor count,"T/C endpoint: median survival time, dose: 100.0 mg/kg/injection, schedule: Q01DX011 (ip), vehicle: water, higher T/C = longer survival",4 of 8
same,T/C,[3],132 % of control [6 of 8 alive]
same,survivor count,[3],8 of 8
same,survivor count,"T/C endpoint: median survival time, dose: 400.0 mg/kg/injection, schedule: Q01DX011 (ip), vehicle: Klucel (hydroxypropylcellulose) (HPC), higher T/C = longer survival",8 of 8
same,survivor count,"T/C endpoint: median survival time, dose: 800.0 mg/kg/injection, schedule: Q01DX011 (ip), vehicle: Klucel (hydroxypropylcellulose) (HPC), higher T/C = longer survival",8 of 8
same,survivor count,"T/C endpoint: median survival time, dose: 1600.0 mg/kg/injection, schedule: Q01DX011 (ip), vehicle: Klucel (hydroxypropylcellulose) (HPC), higher T/C = longer survival",4 of 8
CCN(CC)Cc1cc(Nc2c3ccccc3nc3cc(Cl)ccc23)ccc1O,survivor count,"T/C endpoint: mean tumor weight (est.), dose: 8.75 mg/kg/injection, schedule: Q01DX011 (ip), vehicle: saline, higher T/C = larger tumour",2 of 8
same,survivor count,"T/C endpoint: mean tumor weight (est.), dose: 17.5 mg/kg/injection, schedule: Q01DX011 (ip), vehicle: saline, higher T/C = larger tumour",1 of 8
O=[N+]([O-])c1cc(Cl)cc2c1nc(NCCO)c1ccccc12,survivor count,"T/C endpoint: mean tumor weight (est.), dose: 50.0 mg/kg/injection, schedule: Q01DX011 (ip), vehicle: saline with Tween-80, higher T/C = larger tumour",1 of 8
same,survivor count,[4],7 of 8
same,survivor count,[5],1 of 8
same,survivor count,[2],0 of 8
CCCCC/C(C)=N\Nc1ccccn1,survivor count,"T/C endpoint: median survival time, dose: 12.5 mg/kg/injection, schedule: Q01DX011 (ip), vehicle: saline with Tween-80, higher T/C = longer survival",8 of 8
same,survivor count,[2],0 of 8
O=C(CCCl)N1CCN(C(=O)CCCl)c2ccccc21,survivor count,"T/C endpoint: mean tumor weight (est.), dose: 75.0 mg/kg/injection, schedule: Q01DX011 (ip), vehicle: saline with Tween-80, higher T/C = larger tumour",1 of 8
same,survivor count,"T/C endpoint: median survival time, dose: 75.0 mg/kg/injection, schedule: Q01DX011 (ip), vehicle: saline with Tween-80, higher T/C = longer survival",1 of 8
COc1ccc2nc3cc(Cl)ccc3c(NCCO)c2c1,survivor count,"T/C endpoint: mean tumor weight (est.), dose: 137.5 mg/kg/injection, schedule: Q01DX011 (ip), vehicle: saline with Tween-80, higher T/C = larger tumour",2 of 8
same,survivor count,"T/C endpoint: median survival time, dose: 137.5 mg/kg/injection, schedule: Q01DX011 (ip), vehicle: saline with Tween-80, higher T/C = longer survival",2 of 8
same,survivor count,"T/C endpoint: median survival time, dose: 275.0 mg/kg/injection, schedule: Q01DX011 (ip), vehicle: saline with Tween-80, higher T/C = longer survival",0 of 8
COc1ccc2c(Nc3ccc(NS(C)(=O)=O)cc3)c3ccccc3nc2c1,survivor count,[4],0 of 8
same,survivor count,[5],0 of 8
same,survivor count,[2],0 of 8
Nc1nc(=O)n(C2OC(CO)C(O)C2O)cc1F (configuration not stated),survivor count,"T/C endpoint: median survival time, dose: 64.0 mg/kg/injection, schedule: Q01DX011 (ip), vehicle: saline, higher T/C = longer survival",8 of 8
same,survivor count,"T/C endpoint: median survival time, dose: 128.0 mg/kg/injection, schedule: Q01DX011 (ip), vehicle: saline, higher T/C = longer survival",8 of 8
C=C(C(=O)OC1CC2CCC(C1)N2C)c1ccccc1 (configuration not stated),survivor count,"T/C endpoint: median survival time, dose: 15.0 mg/kg/injection, schedule: Q01DX011 (ip), vehicle: saline, higher T/C = longer survival",1 of 8
same,survivor count,"T/C endpoint: median survival time, dose: 30.0 mg/kg/injection, schedule: Q01DX011 (ip), vehicle: saline, higher T/C = longer survival",0 of 8
same,survivor count,"T/C endpoint: median survival time, dose: 60.0 mg/kg/injection, schedule: Q01DX011 (ip), vehicle: saline, higher T/C = longer survival",0 of 8
O=C1N[C@@H]([C@H]2CC[C@H](Cl)CN2)C(=O)N[C@H]1[C@H]1CC[C@H](Cl)CN1,survivor count,"T/C endpoint: mean tumor weight, dose: 4.0 mg/kg/injection, schedule: Q01DX011 (ip), vehicle: saline, higher T/C = larger tumour",1 of 8
same,survivor count,[1],0 of 8 and 1 of 8
CO[C@H]1/C=C/O[C@@]2(C)Oc3c(C)c(O)c4c(O)c(c(/C=N/N5C(C)CN(Cc6ccccc6)CC5C)c(O)c4c3C2=O)NC(=O)/C(C)=C\C=C\[C@H](C)[C@H](O)[C@@H](C)[C@@H](O)[C@@H](C)[C@H](OC(C)=O)[C@@H]1C (some centres not stated),survivor count,"T/C endpoint: median survival time, dose: 100.0 mg/kg/injection, schedule: Q02DX009 (ip), vehicle: Klucel (hydroxypropylcellulose) (HPC), higher T/C = longer survival",8 of 8
same,survivor count,"T/C endpoint: median survival time, dose: 100.0 mg/kg/injection, schedule: Q02DX009 (ip), vehicle: other, higher T/C = longer survival",8 of 8
same,survivor count,"T/C endpoint: median survival time, dose: 400.0 mg/kg/injection, schedule: Q02DX009 (ip), vehicle: other, higher T/C = longer survival",8 of 8
same,survivor count,"T/C endpoint: median survival time, dose: 800.0 mg/kg/injection, schedule: Q02DX009 (ip), vehicle: Klucel (hydroxypropylcellulose) (HPC), higher T/C = longer survival",8 of 8
same,survivor count,"T/C endpoint: median survival time, dose: 1600.0 mg/kg/injection, schedule: Q02DX009 (ip), vehicle: Klucel (hydroxypropylcellulose) (HPC), higher T/C = longer survival",8 of 8
Clc1ncnc2nc[nH]c12,T/C,"T/C endpoint: mean tumor weight (est.), dose: 3.13 mg/kg/injection, schedule: Q01DX011 (ip), vehicle: other, evaluated on day 12, higher T/C = larger tumour",127 % of control [7 of 8 alive]
same,survivor count,"T/C endpoint: mean tumor weight, dose: 25.0 mg/kg/injection, schedule: Q01DX011 (ip), vehicle: other, higher T/C = larger tumour",4 of 8
same,survivor count,"T/C endpoint: mean tumor weight, dose: 50.0 mg/kg/injection, schedule: Q01DX011 (ip), vehicle: other, higher T/C = larger tumour",5 of 8
same,survivor count,[6],2 of 8
same,survivor count,"T/C endpoint: mean tumor weight, dose: 200.0 mg/kg/injection, schedule: Q01DX011 (ip), vehicle: other, higher T/C = larger tumour",2 of 8
same,T/C,[7],143 % of control
same,survivor count,[7],6 of 8
same,survivor count,"T/C endpoint: median survival time, dose: 25.0 mg/kg/injection, schedule: Q01DX011 (ip), vehicle: other, higher T/C = longer survival",4 of 8 and 6 of 8
same,survivor count,"T/C endpoint: median survival time, dose: 50.0 mg/kg/injection, schedule: Q01DX011 (ip), vehicle: other, higher T/C = longer survival",5 of 8
same,survivor count,[8],2 of 8
same,survivor count,[9],2 of 8
same,survivor count,"T/C endpoint: median survival time, dose: 400.0 mg/kg/injection, schedule: Q01DX011 (ip), vehicle: other, higher T/C = longer survival",0 of 8
COc1cc(C[C@H]2c3cc(OC)c(OC)cc3CCN2C)c(Oc2cc3c(cc2OC)-c2c(OC)c(OC)cc4c2[C@H](C3)N(C)CC4)cc1OC,survivor count,[6],3 of 10
same,survivor count,[8],3 of 10
same,survivor count,[9],0 of 10
